The target in test [1] is Flag-Smad1. Description: co-IP; lysates of stage 11.5 Xenopus embryos co-injected with Flag-smad1 and Myc-xbra mRNA, with or without HA-foxd4l1.1 or EnRfoxd4l1.1; immunoprecipitation with anti-Flag monoclonal antibody, western blot with anti-Myc. (Immunoblotting shows a protein as a band on a membrane.)
For test [2], the target named is HA-Foxd4l1.1 (Xenopus). Description: co-IP; lysates of stage 11.5 Xenopus embryos co-injected with HA-foxd4l1.1 (or truncations) and Myc-xbra mRNA; immunoprecipitation with anti-HA polyclonal antibody, western blot with anti-Myc.

Results are given in words; binding and its absence hold for the method and conditions named. In cells and extracts the contact can be indirect. Binding can be weak; no strength is given. Where a sequence is shown, tags or fusion partners need not be part of it.

Among the data in article PMC7545198 are binding values, retold here.

B1: Myc-Xbra (protein, UniProt P24781 1-432)
chain: MSATESCAKNVQYRVDHLLSAVENELQAGSEKGDPTEKELKVSLEERDLWTRFKELTNEMIVTKNGRRMFPVLKVSMSGLDPNAMYTVLLDFVAADNHRWKYVNGEWVPGGKPEPQAPSCVYIHPDSPNFGAHWMKDPVSFSKVKLTNKMNGGGQIMLNSLHKYEPRIHIVRVGGTQRMITSHSFPETQFIAVTAYQNEEITALKIKHNPFAKAFLDAKERNDYKDILDEGIDSQHSNFSQLGTWLIPNGGSLCSPNPHTQFGAPLSLSSPHGCERYSSLRNHRSAPYPSPYTHRNNSPNNLADNSSACLSMLQSHDNWSTLQMPAHTGMLPMSHSTGTPPPSSQYPSLWSVSNSAITPVSQSGGITNGISSQYLLGSTPHYSSLSHAVPSPSTGSPLYEHGAQTEIAENQYDVTAHSRLSSTWTPVAPPSV
As to B1, the binding result in test [1] and in test [2] was “binds” throughout.
